Assay results from patent publication US20170007709A1, “GLYCOAMINO ACID AND USE THEREOF” (AJINOMOTO CO., INC., priority 2014, published 2017).

Assay: Sensory evaluation of bitter taste
Details: 0.1 ml of 0.5% (5000 ppm) solution in water dropped on the tongue, compared with leucine

SMILES | sensory evaluation of bitter taste, test subject A | sensory evaluation of bitter taste, test subject B | sensory evaluation of bitter taste, test subject C
CC(C)C[C@H](NC(=O)OC1O[C@H](CO)[C@@H](O)[C@H](O)[C@H]1O)C(=O)O (stereo partly drawn) [Glc-Leu, N-(α/β-D-glucopyranosyloxycarbonyl)-L-leucine] | No bitter taste | No bitter taste; also recorded: faintly sweet | No bitter taste
CC(C)C[C@H](NC(=O)OC1O[C@H](CO)[C@@H](O)[C@H](O)[C@H]1O)C(=O)NC1O[C@H](CO)[C@@H](O)[C@H](O)[C@H]1O (stereo partly drawn) [Glc-Leu-Glc, N—(N-(α/β-D-glucopyranosyloxycarbonyl)-L-leucyl)-β-D-glucopyranosylamine] | No bitter taste | No bitter taste; also recorded: faintly sweet | No bitter taste

Entries after “also recorded” stand apart in the source; their conditions may differ.
